Our source for the binding values is PMC10907362.

No constants are given. Whether binding was seen depends on the method and setting. Binding seen in cells or lysates may run through a third protein. Here binding means that the protein was enriched with, or labelled near, the bait; the list need not be complete. Tags and fused reporters may be left off the sequences shown.

Sequences and labels used below:
T1: Flag-USP40 (in HLMVECs) (human) (UniProt Q9NVE5)
T1 sequence: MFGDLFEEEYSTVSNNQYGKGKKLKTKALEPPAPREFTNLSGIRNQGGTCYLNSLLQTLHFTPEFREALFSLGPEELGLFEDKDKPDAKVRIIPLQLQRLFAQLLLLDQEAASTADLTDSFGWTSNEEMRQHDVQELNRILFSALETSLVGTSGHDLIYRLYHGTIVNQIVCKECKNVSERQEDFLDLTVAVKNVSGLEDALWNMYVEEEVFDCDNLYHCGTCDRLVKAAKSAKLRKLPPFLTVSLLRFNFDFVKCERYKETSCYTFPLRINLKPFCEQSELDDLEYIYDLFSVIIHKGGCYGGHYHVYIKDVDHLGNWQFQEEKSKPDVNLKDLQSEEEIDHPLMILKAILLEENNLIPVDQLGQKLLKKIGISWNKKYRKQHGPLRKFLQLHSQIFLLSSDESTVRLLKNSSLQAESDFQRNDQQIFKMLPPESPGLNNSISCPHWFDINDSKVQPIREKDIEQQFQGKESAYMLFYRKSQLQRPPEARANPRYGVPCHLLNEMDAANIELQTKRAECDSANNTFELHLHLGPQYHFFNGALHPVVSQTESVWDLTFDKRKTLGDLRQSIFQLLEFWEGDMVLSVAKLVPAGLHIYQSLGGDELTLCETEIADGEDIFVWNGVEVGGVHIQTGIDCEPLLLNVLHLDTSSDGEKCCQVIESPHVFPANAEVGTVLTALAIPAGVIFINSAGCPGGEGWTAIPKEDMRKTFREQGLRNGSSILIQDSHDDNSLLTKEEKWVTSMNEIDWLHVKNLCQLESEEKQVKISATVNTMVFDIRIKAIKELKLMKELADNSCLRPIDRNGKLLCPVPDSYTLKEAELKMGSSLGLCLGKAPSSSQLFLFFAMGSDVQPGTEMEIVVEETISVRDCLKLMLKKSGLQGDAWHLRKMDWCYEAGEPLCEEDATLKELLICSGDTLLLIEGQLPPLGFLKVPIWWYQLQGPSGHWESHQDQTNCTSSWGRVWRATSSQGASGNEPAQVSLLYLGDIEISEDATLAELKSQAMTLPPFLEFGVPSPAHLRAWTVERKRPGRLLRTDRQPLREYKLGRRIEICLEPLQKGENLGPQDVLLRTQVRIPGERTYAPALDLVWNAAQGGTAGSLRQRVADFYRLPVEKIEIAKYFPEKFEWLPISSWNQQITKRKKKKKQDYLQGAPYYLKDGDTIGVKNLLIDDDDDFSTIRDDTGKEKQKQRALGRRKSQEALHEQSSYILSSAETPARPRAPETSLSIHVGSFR

B1: Isoform 2 of Highly divergent homeobox (protein, UniProt Q7Z353-2 1-632)
chain: MSSKNSESGTATTGTSLSAPDITVRNVVNIARPSSQQSSWTSANNDVIVTGIYSPASSSSRQGTNKHTDTQITEAHKIPIQKTATKNDTEFQLHIPVQRQVAHCKNASLLLGEKTIILSRQTSVLNAGNSVFNHAKKNYGNSSVQASEMTVPQKPSVCHRPCKIEPVGIQRSYKPEHTGPALHNLCGQKPTIRDPYCRTQNLEIREVFSLAVSDYPQRILGGNAPQKPSSAEGNCLSIAMETGDAEDEYAREEELASMRAQIPSYSRFYESGSSLRAENQSTTLPGPGRNMPNSQMVNIRDMSDNVLYQNRNYHLTPRTSLHTASSTMYSNTNPLRSNFSPHFASSNQLRLSQNQNNYQISGNLTVPWITGCSRKRALQDRTQFSDRDLATLKKYWDNGMTSLGSVCREKIEAVATELNVDCEIVRTWIGNRRRKYRLMGIEVPPPRGGPADFSEQPESGSLSALTPGEEAGPEVGEDNDRNDEVSICLSEGSSQEEPNEVVPNDARAHKEEDHHAVTTDNVKIEIIDDEESDMISNSEVEQVNSFLDYKNEEVKFIENELEIQKQKYFKLQTFVRSLILAMKADDKEQQQALLSDLPPELEEMDFNHASLEPDDTSFSVSSLSEKNVSESL
B2: Zyxin (protein, UniProt B4DQR8 1-485)
chain: MGRVGEIPPPPPEDFPLPPPPLAGDGDDAEGALGGAFPPPPPPIEESFPPAPLEEEIFPSPPPPPEEEGGPEAPIPPPPQVSSGYVPPPVATPFSSKSSTKPAAGGTAPLPPWKSPSSSQPLPQVPAPAQSQTQFHVQPQPQPKPQVQLHVQSQTQPVSLANTQPRGPPASSPAPAPKFSPVTPKFTPVASKFSPGAPGGSGSQPNQKLGHPEALSAGTGSPQPPSFTYAQQREKPRVQEKQHPVPPPAQNQNQVRSPGAPGPLTLKEVEELEQLTQQLMQDMEHPQRQNVAVNELCGRCHQPLARAQPAVRALGQLFHIACFTCHQCAQQLQGQQFYSLEGAPYCEGCYTDTLEKCNTCGEPITDRMLRATGKAYHPHCFTCVVCARPLEGTSFIVDQANRPHCVPDYHKQYAPRCSVCSEPIMPEPGRDETVRVVALDKNFHMKCYKCEDCGKPLSIEADDNGCFPLDGHVLCRKCHTARAQT
B3: Nuclear fragile X mental retardation-interacting protein 2 (protein, UniProt Q7Z417 1-695)
chain: MEEKPGQPQPQHHHSHHHPHHHPQQQQQQPHHHHHYYFYNHSHNHHHHHHHQQPHQYLQHGAEGSPKAQPKPLKHEQKHTLQQHQETPKKKTGYGELNGNAGEREISLKNLSSDEATNPISRVLNGNQQVVDTSLKQTVKANTFGKAGIKTKNFIQKNSMDKKNGKSYENKSGENQSVDKSDTIPIPNGVVTNNSGYITNGYMGKGADNDGSGSESGYTTPKKRKARRNSAKGCENLNIVQDKIMQQETSVPTLKQGLETFKPDYSEQKGNRVDGSKPIWKYETGPGGTSRGKPAVGDMLRKSSDSKPGVSSKKFDDRPKGKHASAVASKEDSWTLFKPPPVFPVDNSSAKIVPKISYASKVKENLNKTIQNSSVSPTSSSSSSSSTGETQTQSSSRLSQVPMSALKSVTSANFSNGPVLAGTDGNVYPPGGQPLLTTAANTLTPISSGTDSVLQDMSLTSAAVEQIKTSLFIYPSNMQTMLLSTAQVDLPSQTDQQNLGDIFQNQWGLSFINEPSAGPETVTGKSSEHKVMEVTFQGEYPATLVSQGAEIIPSGTEHPVFPKAYELEKRTSPQVLGSILKSGTTSESGALSLEPSHIGDLQKADTSSQGALVFLSKDYEIESQNPLASPTNTLLGSAKEQRYQRGLERNDSWGSFDLRAAIVYHTKEMESIWNLQKQDPKRIITYNEAMDSPDQ
B4: Isoform 2 of RNA-binding protein 10 (protein, UniProt P98175-2 1-929)
chain: MEYERRGGRGDRTGRYGATDRSQDDGGENRSRDHDYRDMDYRSYPREYGSQEGKHDYDDSSEEQSAEDSYEASPGSETQRRRRRRHRHSPTGPPGFPRDGDYRDQDYRTEQGEEEEEEEDEEEEEKASNIVMLRMLPQAATEDDIRGQLQSHGVQAREVRLMRNKSSGQSRGFAFVEFSHLQDATRWMEANQHSLNILGQKVSMHYSDPKPKINEDWLCNKCGVQNFKRREKCFKCGVPKSEAEQKLPLGTRLDQQTLPLGGRELSQGLLPLPQPYQAQGVLASQALSQGSEPSSENANDTIILRNLNPHSTMDSILGALAPYAVLSSSNVRVIKDKQTQLNRGFAFIQLSTIEAAQLLQILQALHPPLTIDGKTINVEFAKGSKRDMASNEGSRISAASVASTAIAAAQWAISQASQGGEGTWATSEEPPVDYSYYQQDEGYGNSQGTESSLYAHGYLKGTKGPGITGTKGDPTGAGPEASLEPGADSVSMQAFSRAQPGAAPGIYQQSAEASSSQGTAANSQSYTIMSPAVLKSELQSPTHPSSALPPATSPTAQESYSQYPVPDVSTYQYDETSGYYYDPQTGLYYDPNSQYYYNAQSQQYLYWDGERRTYVPALEQSADGHKETGAPSKEGKEKKEKHKTKTAQQIAKDMERWARSLNKQKENFKNSFQPISSLRDDERRESATADAGYAILEKKGALAERQHTSMDLPKLASDDRPSPPRGLVAAYSGESDSEEEQERGGPEREEKLTDWQKLACLLCRRQFPSKEALIRHQQLSGLHKQNLEIHRRAHLSENELEALEKNDMEQMKYRDRAAERREKYGIPEPPEPKRRKYGGISTASVDFEQPTRDGLGSDNIGSRMLQAMGWKEGSGLGRKKQGIVTPIEAQTRVRGSGLGARGSSYGVTSTESYKETLHKTMVTRFNEAQ

This assay concerns the target T1, Flag-USP40 (in HLMVECs) (human). The assay can be described thus: affinity purification with mass spectrometry; Flag-USP40 immunoprecipitated from transfected HLMVECs with FLAG-M2 affinity gel; eluted under reducing conditions, SDS-PAGE, Coomassie, bands excised, in-gel trypsin digestion, LC-MS.
In the case of B1, the binding result is reported as “binds”.
The result for B2 reads “binds”; that for B3, “binds”; that for B4, “binds”.
